Reference: the supplement of paper PMC6658780
Structures can show the parent of a compound that is named as a salt. ± gives the standard deviation of the averaged measurements. The list shows a part of the results. Repeats in this data set agree poorly, so a single value says little.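 The A. baumannii clinical isolates were selected for resistance to the partner antibiotic; the screen seeks drugs that restore its effect. Background from coloured compounds is removed by subtracting the start-of-incubation reading.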

Tests used:
[1] = system: Acinetobacter baumannii WP-487; experiment: percent growth inhibition of drug alone vs DMSO control; higher = more growth inhibition; settings: antibiotic (0.125x MIC): none (0.1% DMSO)
[2] = system: Acinetobacter baumannii WP-487; experiment: percent growth inhibition of drug + antibiotic vs DMSO control; higher = more growth inhibition; settings: antibiotic (0.125x MIC): colistin

COc1nc(C)nc(Cl)c1NC1=NCCN1 [Moxonidine]
percent growth inhibition of drug alone ([1]; 7 µM): 0.173 ± 7% | percent growth inhibition of drug alone ([1]; 20 µM): -2.62 ± 1.4% | percent growth inhibition ([2]; 7 µM): 36.9 ± 57% | percent growth inhibition ([2]; 20 µM): -3.85 ± 12%

Cc1ccnc(NS(=O)(=O)c2ccc(N)cc2)n1 [Sulfamerazine]
percent growth inhibition ([2]; 7 µM): 46.8 ± 68% | percent growth inhibition ([2]; 20 µM): 50.8 ± 65%

CC(C)/N=c1\cc2n(-c3ccc(Cl)cc3)c3ccccc3nc-2cc1Nc1ccc(Cl)cc1 [Clofazimine]
percent growth inhibition ([2]; 7 µM): 2.95 ± 3.7% | percent growth inhibition ([2]; 20 µM): 48.4 ± 71%

O=C1CN(/N=C/c2ccc([N+](=O)[O-])o2)C(=O)N1 [Nitrofurantoin]
percent growth inhibition ([2]; 7 µM): 0.285 ± 0.36% | percent growth inhibition ([2]; 20 µM): 55.6 ± 50%

CN[C@@H]1[C@@H](O[C@H]2O[C@H](CO)[C@@H](N)[C@H](O)[C@H]2O)OC2C[C@@H](N)[C@@H](O[C@H]3[C@H](O)[C@@H](O)[C@H](N)C[C@@H]3N)OC2[C@@H]1O (stereo partly specified) [Apramycin]
percent growth inhibition ([2]; 7 µM): 12.1 ± 8.2% | percent growth inhibition ([2]; 20 µM): 93.9 ± 6.6%

CN(C)CC/C=C1/c2ccccc2Sc2ccc(Cl)cc21 [Chlorprothixene hydrochloride]
percent growth inhibition of drug alone ([1]; 7 µM): 0.949 ± 4.9% | percent growth inhibition of drug alone ([1]; 20 µM): 2 ± 0.35% | percent growth inhibition ([2]; 7 µM): 6.42 ± 16% | percent growth inhibition ([2]; 20 µM): 52.1 ± 68%

CC/C(=C(\c1ccccc1)c1ccc(OCCN(C)C)cc1)c1ccccc1 [Tamoxifen citrate]
percent growth inhibition of drug alone ([1]; 7 µM): 2.43 ± 1.8% | percent growth inhibition of drug alone ([1]; 20 µM): 2.38 ± 7.2% | percent growth inhibition ([2]; 7 µM): 42.2 ± 67% | percent growth inhibition ([2]; 20 µM): 66.3 ± 39%

CC(C)(O)c1ccccc1CC[C@@H](SCC1(CC(=O)O)CC1)c1cccc(/C=C/c2ccc3ccc(Cl)cc3n2)c1 [Montelukast]
percent growth inhibition of drug alone ([1]; 7 µM): -3.85 ± 5.8% | percent growth inhibition of drug alone ([1]; 20 µM): -2.94 ± 0.36% | percent growth inhibition ([2]; 7 µM): 39.5 ± 78% | percent growth inhibition ([2]; 20 µM): 2.14 ± 28%

CN1CCC[C@@H]1CCO[C@](C)(c1ccccc1)c1ccc(Cl)cc1 [Clemastine fumarate]
percent growth inhibition ([2]; 7 µM): 20.6 ± 19% | percent growth inhibition ([2]; 20 µM): 56.4 ± 53%

Clc1ccc(C(c2ccccc2Cl)C(Cl)Cl)cc1 (stereo unspecified) [Mitotane]
percent growth inhibition of drug alone ([1]; 7 µM): -1.08 ± 7.7% | percent growth inhibition of drug alone ([1]; 20 µM): 0.196 ± 3.3% | percent growth inhibition ([2]; 7 µM): 3.31 ± 7.1% | percent growth inhibition ([2]; 20 µM): 52.6 ± 64%

CCCCOC(=O)c1ccc(N)cc1 [Butamben]
percent growth inhibition of drug alone ([1]; 7 µM): -8.07 ± 19% | percent growth inhibition of drug alone ([1]; 20 µM): -0.587 ± 0.99% | percent growth inhibition ([2]; 7 µM): 38.2 ± 52% | percent growth inhibition ([2]; 20 µM): 8.12 ± 9.7%

COC(=O)C1=C(C#N)NC(C)=C(C(=O)OC(C)C)C1c1cccc([N+](=O)[O-])c1 (stereo unspecified) [Nilvadipine]
percent growth inhibition ([2]; 7 µM): -3.44 ± 3.3% | percent growth inhibition ([2]; 20 µM): 52.1 ± 65%

Clc1ccc(COC(Cn2ccnc2)c2ccc(Cl)cc2Cl)c(Cl)c1 (stereo unspecified) [Miconazole]
percent growth inhibition ([2]; 7 µM): 51.1 ± 56% | percent growth inhibition ([2]; 20 µM): 53 ± 54%

COc1ccc(C(=O)CC(=O)c2ccc(C(C)(C)C)cc2)cc1 [Avobenzone]
percent growth inhibition ([2]; 7 µM): 13.6 ± 21% | percent growth inhibition ([2]; 20 µM): 52 ± 65%

CC(NCCC(c1ccccc1)c1ccccc1)c1ccccc1 (stereo unspecified) [Fendiline hydrochloride]
percent growth inhibition ([2]; 7 µM): 45.6 ± 51% | percent growth inhibition ([2]; 20 µM): 54.9 ± 52%

Cc1nc2n(c(=O)c1CCN1CCC(c3noc4cc(F)ccc34)CC1)CCCC2 [Risperidone]
percent growth inhibition of drug alone ([1]; 7 µM): 5.42 ± 5.7% | percent growth inhibition of drug alone ([1]; 20 µM): 7.38 ± 8.5% | percent growth inhibition ([2]; 7 µM): -1.45 ± 0.83% | percent growth inhibition ([2]; 20 µM): 52.4 ± 65%

O=C1Nc2ccc(Cl)cc2[C@@](C#CC2CC2)(C(F)(F)F)O1 [Efavirenz]
percent growth inhibition of drug alone ([1]; 7 µM): 0.53 ± 4.9% | percent growth inhibition of drug alone ([1]; 20 µM): -6.45 ± 1.5% | percent growth inhibition ([2]; 7 µM): 42.5 ± 66% | percent growth inhibition ([2]; 20 µM): 49 ± 59%

Nc1nc(/C(=C/CC(=O)O)C(=O)N[C@@H]2C(=O)N3C(C(=O)O)=CCS[C@H]23)cs1 [Ceftibuten]
percent growth inhibition of drug alone ([1]; 7 µM): 5.73 ± 0.076% | percent growth inhibition of drug alone ([1]; 20 µM): 7.58 ± 10% | percent growth inhibition ([2]; 7 µM): 20.8 ± 35% | percent growth inhibition ([2]; 20 µM): 66.4 ± 40%

COc1ccccc1N1CCN(CC(O)COc2cccc3ccccc23)CC1 (stereo unspecified) [Naftopidil dihydrochloride]
percent growth inhibition ([2]; 7 µM): 5.11 ± 12% | percent growth inhibition ([2]; 20 µM): 48.4 ± 73%

Nc1ccc(S(=O)(=O)Nc2ccnn2-c2ccccc2)cc1 [Sulfaphenazole]
percent growth inhibition ([2]; 7 µM): 4.31 ± 13% | percent growth inhibition ([2]; 20 µM): 47.3 ± 70%

Clc1ccc(CSC(Cn2ccnc2)c2ccc(Cl)cc2Cl)cc1 (stereo unspecified) [Sulconazole nitrate]
percent growth inhibition of drug alone ([1]; 7 µM): -3.43 ± 5% | percent growth inhibition of drug alone ([1]; 20 µM): 2.88 ± 10% | percent growth inhibition ([2]; 7 µM): 55.5 ± 51% | percent growth inhibition ([2]; 20 µM): 58.9 ± 48%

COc1cnc(NS(=O)(=O)c2ccc(N)cc2)nc1 [Sulfameter]
percent growth inhibition ([2]; 7 µM): 9.55 ± 30% | percent growth inhibition ([2]; 20 µM): 51.1 ± 64%

Clc1ccc(C(Cn2ccnc2)OCc2c(Cl)cccc2Cl)c(Cl)c1 (stereo unspecified) [Isoconazole]
percent growth inhibition ([2]; 7 µM): 47.4 ± 61% | percent growth inhibition ([2]; 20 µM): 58.7 ± 48%

COc1cc(NS(=O)(=O)c2ccc(N)cc2)ncn1 [Sulfamonomethoxine]
percent growth inhibition ([2]; 7 µM): 45.6 ± 72% | percent growth inhibition ([2]; 20 µM): 53.9 ± 60%

Clc1cc(Cl)c(OCC#CI)cc1Cl [Haloprogin]
percent growth inhibition of drug alone ([1]; 7 µM): 5.16 ± 1.6% | percent growth inhibition of drug alone ([1]; 20 µM): 7.57 ± 8.6% | percent growth inhibition ([2]; 7 µM): 48.5 ± 60% | percent growth inhibition ([2]; 20 µM): 56.5 ± 50%

CCOC1O[C@H]([C@@H](COCc2ccccc2)OCc2ccccc2)[C@H](OCc2ccccc2)[C@H]1O (stereo partly specified) [Tribenoside]
percent growth inhibition ([2]; 7 µM): -1.7 ± 6% | percent growth inhibition ([2]; 20 µM): 44.4 ± 79%

CC[C@H](c1ccc(O)cc1)[C@@H](CC)c1ccc(O)cc1 [Hexestrol]
percent growth inhibition ([2]; 7 µM): 45 ± 64% | percent growth inhibition ([2]; 20 µM): 48.9 ± 59%

COc1ccc(-c2cc(=S)ss2)cc1 [Anethole-trithione]
percent growth inhibition ([2]; 7 µM): 5.79 ± 5.3% | percent growth inhibition ([2]; 20 µM): 53.1 ± 65%

CCOC(=O)N1CCC(=C2c3ccc(Cl)cc3CCc3cccnc32)CC1 [Loratadine]
percent growth inhibition of drug alone ([1]; 7 µM): -1.87 ± 11% | percent growth inhibition of drug alone ([1]; 20 µM): -0.119 ± 3.1% | percent growth inhibition ([2]; 7 µM): -2.61 ± 5.2% | percent growth inhibition ([2]; 20 µM): 55.8 ± 63%

COc1cccc(N(C)C(=S)Oc2ccc3c(c2)CCCC3)n1 [Liranaftate]
percent growth inhibition of drug alone ([1]; 7 µM): 2.48 ± 3% | percent growth inhibition of drug alone ([1]; 20 µM): 0.512 ± 1.9% | percent growth inhibition ([2]; 7 µM): 49 ± 59% | percent growth inhibition ([2]; 20 µM): 47.9 ± 61%
